In article PMC5354814, “In silico and in vitro drug screening identifies new therapeutic approaches for Ewing sarcoma” (Oncotarget, 2016):

Tests used:
Assay in all cases: In vitro high-throughput screen of FDA-approved drug library (CellTiter-Glo)
Assay type in all cases: cell-based
SK-ES-1 = conditions: Homo sapiens, SK-ES1; 1 μmol/L drug, 72 hours
Method: (§1) We screened, in parallel to the three computational approaches, an FDA-approved drug library containing 2,316 drugs (1,536 unique chemical entities). […] The drug screening study protocol employed is summarized in Supplementary Table S1.
(§2) Cells were grown to 80–90% confluence, harvested and aliquoted into 384-well plates (black μClear microplates, Greiner bio-one, Germany) at concentrations of 750–1,500 cells per well in a total volume of 25 μl/well using a Matrix Wellmate (Thermo Scientific). Cells were cultured for 72 hours in a 5% CO2 atmosphere at 37°C. Aliquots of 25 μl CellTiter-Glo® Reagent (Promega) were added directly to each well, the plates were incubated at room temperature for 20 min and the luminescence signal was measured according to the manufacturer's protocol. The measurements were made using Infinite® M200 Pro plate reader (Tecan, Switzerland). […] Data were normalized to percentage inhibition. […]
(§3) (A) Color scale for drug inhibition values. […]

Hs 919.T. = conditions: 1 μmol/L drug, 72 hours, control cell line
Method: as §1, §2, §3

A673 = conditions: Homo sapiens, 1 μmol/L drug, 72 hours
Method: as §1, §2, §3

RD-ES = conditions: 1 μmol/L drug, 72 hours
Method: as §1, §2, §3

## O=C(CCCCCCC(=O)Nc1ccccc1)NO [Vorinostat]
SK-ES-1
  inhibition at 1 µM: < 50%
Hs 919.T.
  inhibition at 1 µM: < 50%
A673
  inhibition at 1 µM: < 50%
RD-ES
  inhibition at 1 µM: 61%
